{"source": "patent US20100303887A1", "about": "“DHA and PEDF, a Therapeutic Composition for Nerve and Retinal Pigment Epithelial Cells” (priority 2007, published 2010)", "key": {"NPD1 synthesis": {"tested_on": "NPD1 synthesis", "assay": "NPD1 synthesis and release from polarized primary human RPE cell monolayers (lipidomic analysis)", "format": "cell-based", "conditions": "72 hr; DHA 0 to 200 nM; arachidonic acid under similar conditions", "protocol": "Human RPE cells. Cultures of retinal pigment epithelial (RPE) cells were prepared. RPE cells were seeded onto Millicell-HA culture plate inserts (Millipore, Bradford, Mass.), placed in 24-well plates, and allowed to reach confluence. Consent for use of tissue for research was obtained in compliance with Federal and State law and institutional regulations. Cultures were maintained in Chee's essential replacement medium until the experiments were performed as described in J. Hu and D. Bok (2001) Mol Vis 7:14-19. The medium includes Eagle's minimal essential medium with calcium (MEM, Irvine Scientific, Irvine, Calif.), 1% heat-inactivated calf serum (JRH Bioscience, Lennexo, Kans.), amino acid supplements, and 1% bovine retinal extract. The Millicell-HA filter inserts allow separate manipulation of the culture media bathing the apical and basal surfaces of the RPE monolayer and measurement of the transepithelial resistance (TER), which provides a measure of cell differentiation and confluency. Cultures were used for experiments once they developed a TER of at least 400 Ω·cm^2, as measured by an Epithelial Volt-ohmmeter (EVOM, World Precision Instruments, New Haven, Conn.). […]\nLipidomic analysis. […] The instrument was set on full-scan mode, to detect parent ions, and selected reaction mode (SRM) for quantitative analysis, to detect product ions, simultaneously. […]"}, "Bcl-2 and Bfl-1": {"tested_on": "Bcl-2 and Bfl-1", "assay": "Anti-apoptotic protein expression in ARPE-19 cells under serum starvation/H2O2/TNFα oxidative stress (Western blot)", "format": "cell-based, human", "conditions": "DHA 10 to 50 nM, with or without PEDF", "protocol": "(§1) Exposure of ARPE-19 cells to growth factors. Cells at 75-80% confluence (72 hr growth in DMEM/F12+10% FBS) were serum-starved for 2 hr before exposure to growth factors. The serum-starved cells were treated with TNF-α (Sigma-Aldrich Corporation, St. Louis, Mo.) (10 ng/ml) and H2O2 (600 μM) to induce oxidative stress and challenged with increasing concentrations (10, 30, 50 nM) and PEDF (Chemicon International, Temecula, Calif.) (50 ng/ml) simultaneously with oxidative stress for 4 hr before harvesting for protein analysis. Cell extracts were made and protein concentrations were adjusted by Bio-Rad protein reagent and used for Western-blot analysis. […] Cells were analyzed to detect Hoechst-positive apoptotic cells.\n(§2) Analysis of Bcl-2 and caspase-3 cleavage. Bcl-2 protein and caspase-3 cleavage were analyzed by Western-blot analysis. […] The membranes were probed with primary antibodies against Bcl-2 (Santa Cruz Biotechnology, Inc., Santa Cruz, Calif.) and cleaved caspase-3 (Asp-175) (Cell Signaling) at room temperature and treated for 20 minutes with the secondary antibody, goat anti-rabbit IgG: horseradish peroxidase, and horseradish peroxidase-conjugated anti-biotin antibody, then proteins were detected by using an ECL kit (Amersham Biosciences, Buckinghamshire, United Kingdom). […]"}, "Bid, Bax, and Bad": {"tested_on": "Bid, Bax, and Bad", "assay": "Pro-apoptotic protein expression in ARPE-19 cells under serum starvation/H2O2/TNFα oxidative stress (Western blot)", "format": "cell-based, human", "conditions": "DHA 10 to 50 nM, with or without PEDF", "protocol": "as §1, §2"}, "caspase-3": {"tested_on": "caspase-3", "assay": "Caspase-3 cleavage in ARPE-19 cells under serum starvation/H2O2/TNFα oxidative stress", "format": "cell-based, human", "conditions": "DHA 10 to 50 nM, with or without PEDF"}}, "note": "At least one structure is not confirmed: it was looked up by name or label, or the drawing left a doubt."}
{"smiles": "CC/C=C\\C/C=C\\C/C=C\\C/C=C\\C/C=C\\C/C=C\\CCC(=O)O", "note": "[DHA, docosahexaenoic acid]", "values": [{"measurement": "NPD1 synthesis and release, fatty acid added to the apical medium", "setting": "NPD1 synthesis", "result": "promoted higher, concentration-dependent NPD1 synthesis and release"}, {"measurement": "Bcl-2 and Bfl-1 anti-apoptotic protein expression", "setting": "Bcl-2 and Bfl-1", "result": "up-regulate Bcl-2 and Bfl-1 protein expression"}, {"measurement": "Bid, Bax and Bad pro-apoptotic protein expression", "setting": "Bid, Bax, and Bad", "result": "decreased their expressions"}, {"measurement": "Caspase-3 cleavage/activation", "setting": "caspase-3", "result": "progressively decreased"}]}
